{"source": "paper doi:10.1101/2020.05.30.125153", "target": "T1, ribosomal protein uL16 of the 60S large ribosomal subunit (Saccharomyces cerevisiae) (S. cerevisiae) (UniProt P41805)", "T1 sequence": "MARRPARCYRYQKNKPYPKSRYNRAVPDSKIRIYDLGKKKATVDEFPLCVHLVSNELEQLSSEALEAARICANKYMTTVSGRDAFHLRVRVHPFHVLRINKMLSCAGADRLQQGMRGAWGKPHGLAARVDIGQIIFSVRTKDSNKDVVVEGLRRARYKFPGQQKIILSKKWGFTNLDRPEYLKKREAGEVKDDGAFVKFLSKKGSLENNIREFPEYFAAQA", "assay": "cryo-EM structure", "note": "These are yes or no findings as the source states them, for the method shown. Some entries that bind do so weakly or less than the wild type. Where a sequence is shown, tags or fusion partners need not be part of it.", "data": [{"binder": "eukaryotic translation initiation factor eIF5B (Saccharomyces cerevisiae) (protein, UniProt P39730 1-1002) MAKKSKKNQQNYWDEEFEEDAAQNEEISATPTPNPESSAGADDTSREASASAEGAEAIEGDFMSTLKQSKKKQEKKVIEEKKDGKPILKSKKEKEKEKKEKEKQKKKEQAARKKAQQQAQKEKNKELNKQNVEKAAAEKAAAEKSQKSKGESDKPSASAKKPAKKVPAGLAALRRQLELKKQLEEQEKLEREEEERLEKEEEERLANEEKMKEEAKAAKKEKEKAKREKRKAEGKLLTRKQKEEKKLLERRRAALLSSGNVKVAGLAKKDGEENKPKKVVYSKKKKRTTQENASEAIKSDSKKDSEVVPDDELKESEDVLIDDWENLALGDDDEEGTNEETQESTASHENEDQNQGEEEEEGEEEEEEEEERAHVHEVAKSTPAATPAATPTPSSASPNKKDLRSPICCILGHVDTGKTKLLDKIRQTNVQGGEAGGITQQIGATYFPIDAIKAKTKVMAEYEKQTFDVPGLLVIDTPGHESFSNLRSRGSSLCNIAILVIDIMHGLEQQTIESIKLLRDRKAPFVVALNKIDRLYDWKAIPNNSFRDSFAKQSRAVQEEFQSRYSKIQLELAEQGLNSELYFQNKNMSKYVSIVPTSAVTGEGVPDLLWLLLELTQKRMSKQLMYLSHVEATILEVKVVEGFGTTIDVILSNGYLREGDRIVLCGMNGPIVTNIRALLTPQPLRELRLKSEYVHHKEVKAALGVKIAANDLEKAVSGSRLLVVGPEDDEDELMDDVMDDLTGLLDSVDTTGKGVVVQASTLGSLEALLDFLKDMKIPVMSIGLGPVYKRDVMKASTMLEKAPEYAVMLCFDVKVDKEAEQYAEQEGIKIFNADVIYHLFDSFTAYQEKLLEERRKDFLDYAIFPCVLQTLQIINKRGPMIIGVDVLEGTLRVGTPICAVKTDPTTKERQTLILGKVISLEINHQPVQEVKKGQTAAGVAVRLEDPSGQQPIWGRHVDENDTLYSLVSRRSIDTLKDKAFRDQVARSDWLLLKKLKVVFGIE", "values": [{"measurement": "binding", "result": "binds"}]}]}
